{"source": "patent US20060287375A1", "about": "(priority 2003, published 2006)", "note": "Some results were stated once for a whole list of compounds, not compound by compound.", "data": [{"test_system": "southern root-knot nematode", "assay": "Test for root-knot nematode", "type": "in vivo", "details": "20 ppm solution, 0.5 ml mixed with 0.5 ml suspension of about 100 second-stage larvae, 25° C., 2 days", "units": {"Nemastatic degree": "%"}, "values": [{"compound": "CCCOC(=O)N1C(=S)c2ccccc2S1(=O)=O", "note": "[compound 6]", "Nemastatic degree": "≥ 90"}, {"compound": "COC(=O)N1C(=S)c2ccccc2S1(=O)=O", "note": "[compound 23]", "Nemastatic degree": "≥ 90"}, {"compound": "CCCCOC(=O)N1C(=S)c2ccccc2S1(=O)=O", "note": "[compound 31]", "Nemastatic degree": "≥ 90"}]}]}
